# Source: PubChem BioAssay AID1487 (National Center for Advancing Translational Sciences (NCATS), 2009)
# The list shows a part of the results. These are further read-outs of the screen, such as a control signal, another cell line or another target. No call is given for them. Most of these compounds were active or inconclusive in the main read-out, so they are no random draw. Words in brackets tell the shape of the fitted curve; partial curves, single points and poor fits give uncertain potencies.
# Assay: qHTS Assay for Modulators of Lamin A Splicing
# Settings: HeLa LMNA splicing GFP/RFP minigene ratio, 48 h
# Summary of the method: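 Read-out is the ratio of GFP to DsRed2 object intensity, acquired by 488 nm laser-scanning cytometry on HeLa lamin A-EGFP minigene reporter cells. Compound incubation 48 hrs at 37 °C in Opti-MEM with 2% FBS; DMSO 0.5% final.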
# [1] = measured here: GFP splicing reporter channel
# [2] = measured here: RFP viability control channel
Structure (SMILES),AC50 [1],AC50 [2]
COc1ccc2ccc3c(c2c1)N=CC1(O3)N(C)c2ccccc2C1(C)C (centres undefined),"15.8 µM [rising, single point]",
CS(=O)(=O)N1CCc2cc(-c3csc(NC(=O)Cc4cccs4)n3)ccc21,,"3.16 µM [rising, single point]"
Cn1c(SCC(=O)C(C)(C)C)nnc1-c1ccc(F)cc1,"0.00355 µM [rising, full curve, poor fit]",
CN(C)c1nc(Nc2ccc(Cl)cc2)nc(OCC#N)n1,,"22.4 µM [falling, single point]"
COc1ccc(C(=O)CSc2nnc(COc3ccccc3)n2Cc2ccco2)cc1,"0.282 µM [rising, full curve]",
COc1ccc2c(c1)C1C=CCC1C(c1cc3c(cc1Br)OCO3)N2 (centres undefined),"3.98 µM [rising, partial curve]",
COc1cc(NC(=O)c2ccc(COc3ccccc3Br)o2)cc(OC)c1OC,,"35.5 µM [rising, single point]"
C=CCn1c(-c2ccc(OC)c(OC)c2)cs/c1=N\c1ccccn1,"12.6 µM [rising, single point]","14.1 µM [rising, partial curve]"
CN(C)c1ccc(/C=C/c2nnnn2-c2ccccc2)cc1,,"11.2 µM [rising, single point]"
CCOc1ccc(C(C)=O)cc1CSC(=N)N,"0.002 µM [falling, full curve, poor fit]",
O=C(CCCCCn1c(=S)[nH]c2cc3c(cc2c1=O)OCO3)N1CCN(C2CCCCC2)CC1,,"35.5 µM [falling, single point]"
COc1ccc(/C=C/C(=O)N2CCNC(=O)C2)c(OC)c1,,"20 µM [rising, single point]"
COc1ccc(-c2cc3ccccc3n2CC(O)Cn2nc(C)cc2C)cc1 (centres undefined),,"7.94 µM [rising, partial curve]"
O=C(/C=C/c1c(F)cccc1Cl)c1ccc(F)cc1,"28.2 µM [falling, single point]","20 µM [falling, partial curve]"
CC(=O)O[C@H]1CC[C@H]2[C@@H]3CCc4cc(O)ccc4[C@H]3CC[C@]12C,"22.4 µM [falling, single point]","31.6 µM [falling, single point]"
Cc1cc2ncn(/N=C/c3ccc(-c4ccccc4)o3)c2cc1C,"22.4 µM [falling, single point]","31.6 µM [falling, single point]"
Cn1cnnc1Sc1cc(N2CCN(S(=O)(=O)c3ccc4ccccc4c3)CC2)ccc1[N+](=O)[O-],,"8.91 µM [rising, partial curve]"
O=C(Cn1ncc(Cl)c(Cl)c1=O)N1CCOCC1,"10 µM [rising, single point]","12.6 µM [rising, single point]"
Cc1cc(C)n(-c2nc3sc4c(c3c(=O)[nH]2)CCCC4)n1,,"2.51 µM [rising, full curve, poor fit]"

# Some of the entries above in another layout:
Structure (SMILES)	AC50 [1]	AC50 [2]
O=C(/C=C/c1c(F)cccc1Cl)c1ccc(F)cc1	28.2 µM [falling, single point]	20 µM [falling, partial curve]
CC(=O)O[C@H]1CC[C@H]2[C@@H]3CCc4cc(O)ccc4[C@H]3CC[C@]12C	22.4 µM [falling, single point]	31.6 µM [falling, single point]
Cc1cc2ncn(/N=C/c3ccc(-c4ccccc4)o3)c2cc1C	22.4 µM [falling, single point]	31.6 µM [falling, single point]

# (further entries)

Structure (SMILES),AC50 [1],AC50 [2]
O=C(Nc1nc(NC(=O)c2ccco2)n(-c2ccccc2)n1)c1ccccc1,,"11.2 µM [rising, partial curve]"
CS(=O)(=O)N(CC(=O)Nc1ccccc1Sc1ccccc1)c1ccc(F)cc1,"12.6 µM [rising, single point]","14.1 µM [rising, single point]"
Fc1ccc(-c2nnc(CN3CCN(c4ncc(C(F)(F)F)cc4Cl)CC3)o2)cc1,"12.6 µM [rising, partial curve, poor fit]","11.2 µM [rising, partial curve]"
[O-][N+](=Nc1ccccc1)c1ccccc1,"0.001 µM [falling, full curve, poor fit]",
COc1ccc(Cl)cc1NC(=S)NCCc1c[nH]c2ccccc12,,"11.2 µM [falling, partial curve, poor fit]"
Cc1ccc(OCCOCCOc2cccc3cccnc23)c(Br)c1,"11.2 µM [rising, single point]","14.1 µM [rising, single point]"
CN(C)/N=C/c1ccc(OS(=O)(=O)c2ccccc2)cc1,"0.00447 µM [rising, full curve, poor fit]",
Cc1ccccc1Cn1c(CN2CCC(C(=O)NCc3cccnc3)CC2)cc2ccccc21,"11.2 µM [falling, single point]","35.5 µM [falling, single point]"
Cc1ccc(C(CCN(Cc2ccccc2)C(=O)c2ccco2)c2ccco2)cc1 (centres undefined),"7.94 µM [rising, single point]","15.8 µM [rising, single point]"
N#CC1=C(N)OC2=C(CCc3ccccc32)C1c1ccccc1 (centres undefined),,"0.891 µM [rising, full curve, poor fit]"
CCc1ccc(NC(=O)CCn2c(-c3ccc(OC)cc3)cc(C(C)=O)c2C)cc1,,"14.1 µM [rising, partial curve, poor fit]"
CCOC(=O)N1CCN(C(=O)C2CCN(C(=O)c3cc4sccc4n3CC)CC2)CC1,"35.5 µM [rising, single point]","35.5 µM [rising, single point]"
COc1cc(OC)c(NC(=O)c2ccoc2C)cc1Cl,,"7.94 µM [rising, partial curve, poor fit]"
COc1ccc(-c2nc(C#N)c(NCc3ccco3)o2)cc1,,"6.31 µM [rising, partial curve, poor fit]"
CCCC(=O)Nc1ccccc1NC(=O)c1cc(OC)c(OC)c(OC)c1,,"3.98 µM [rising, single point]"
CCN(CCNC(=O)C1CCN(Cc2nc(-c3ccc(Cl)cc3)oc2C)CC1)c1ccccc1,"35.5 µM [falling, single point]","25.1 µM [falling, single point]"
O=C(NCCc1c[nH]c2ccccc12)c1ccc(S(=O)(=O)NCc2ccco2)cc1,,"22.4 µM [rising, single point]"
COc1ccc(OC)c(C(=O)CC2OC(=O)c3ccccc32)c1 (centres undefined),"35.5 µM [falling, single point]",
